# Assay results as given in the supplement of paper PMC6411743.
# Amino acid sequences for entries named in this document (tags omitted). A change or cut given only in a name is not applied to a line headed by its entry.
# UniProt P46926: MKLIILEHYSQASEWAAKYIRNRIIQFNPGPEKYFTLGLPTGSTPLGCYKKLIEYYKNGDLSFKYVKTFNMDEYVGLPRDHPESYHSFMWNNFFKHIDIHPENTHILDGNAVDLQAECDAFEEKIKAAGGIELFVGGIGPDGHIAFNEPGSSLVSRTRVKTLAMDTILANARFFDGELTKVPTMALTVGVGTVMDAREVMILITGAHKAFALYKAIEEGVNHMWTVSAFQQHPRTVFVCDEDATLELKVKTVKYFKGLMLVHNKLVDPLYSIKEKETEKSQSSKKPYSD
# UniProt P42167: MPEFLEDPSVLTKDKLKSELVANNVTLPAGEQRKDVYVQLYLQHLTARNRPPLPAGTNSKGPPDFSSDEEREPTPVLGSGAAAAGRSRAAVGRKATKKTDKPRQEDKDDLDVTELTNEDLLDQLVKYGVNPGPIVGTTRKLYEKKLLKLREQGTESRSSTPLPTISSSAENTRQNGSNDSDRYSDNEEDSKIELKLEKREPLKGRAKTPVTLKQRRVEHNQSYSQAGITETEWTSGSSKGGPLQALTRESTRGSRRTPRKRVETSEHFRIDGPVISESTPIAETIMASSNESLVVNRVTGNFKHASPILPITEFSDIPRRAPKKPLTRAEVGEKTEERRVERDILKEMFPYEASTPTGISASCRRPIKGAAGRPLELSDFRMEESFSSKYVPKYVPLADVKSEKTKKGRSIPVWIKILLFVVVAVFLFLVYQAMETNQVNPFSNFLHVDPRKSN
# UniProt P51532, whole entry: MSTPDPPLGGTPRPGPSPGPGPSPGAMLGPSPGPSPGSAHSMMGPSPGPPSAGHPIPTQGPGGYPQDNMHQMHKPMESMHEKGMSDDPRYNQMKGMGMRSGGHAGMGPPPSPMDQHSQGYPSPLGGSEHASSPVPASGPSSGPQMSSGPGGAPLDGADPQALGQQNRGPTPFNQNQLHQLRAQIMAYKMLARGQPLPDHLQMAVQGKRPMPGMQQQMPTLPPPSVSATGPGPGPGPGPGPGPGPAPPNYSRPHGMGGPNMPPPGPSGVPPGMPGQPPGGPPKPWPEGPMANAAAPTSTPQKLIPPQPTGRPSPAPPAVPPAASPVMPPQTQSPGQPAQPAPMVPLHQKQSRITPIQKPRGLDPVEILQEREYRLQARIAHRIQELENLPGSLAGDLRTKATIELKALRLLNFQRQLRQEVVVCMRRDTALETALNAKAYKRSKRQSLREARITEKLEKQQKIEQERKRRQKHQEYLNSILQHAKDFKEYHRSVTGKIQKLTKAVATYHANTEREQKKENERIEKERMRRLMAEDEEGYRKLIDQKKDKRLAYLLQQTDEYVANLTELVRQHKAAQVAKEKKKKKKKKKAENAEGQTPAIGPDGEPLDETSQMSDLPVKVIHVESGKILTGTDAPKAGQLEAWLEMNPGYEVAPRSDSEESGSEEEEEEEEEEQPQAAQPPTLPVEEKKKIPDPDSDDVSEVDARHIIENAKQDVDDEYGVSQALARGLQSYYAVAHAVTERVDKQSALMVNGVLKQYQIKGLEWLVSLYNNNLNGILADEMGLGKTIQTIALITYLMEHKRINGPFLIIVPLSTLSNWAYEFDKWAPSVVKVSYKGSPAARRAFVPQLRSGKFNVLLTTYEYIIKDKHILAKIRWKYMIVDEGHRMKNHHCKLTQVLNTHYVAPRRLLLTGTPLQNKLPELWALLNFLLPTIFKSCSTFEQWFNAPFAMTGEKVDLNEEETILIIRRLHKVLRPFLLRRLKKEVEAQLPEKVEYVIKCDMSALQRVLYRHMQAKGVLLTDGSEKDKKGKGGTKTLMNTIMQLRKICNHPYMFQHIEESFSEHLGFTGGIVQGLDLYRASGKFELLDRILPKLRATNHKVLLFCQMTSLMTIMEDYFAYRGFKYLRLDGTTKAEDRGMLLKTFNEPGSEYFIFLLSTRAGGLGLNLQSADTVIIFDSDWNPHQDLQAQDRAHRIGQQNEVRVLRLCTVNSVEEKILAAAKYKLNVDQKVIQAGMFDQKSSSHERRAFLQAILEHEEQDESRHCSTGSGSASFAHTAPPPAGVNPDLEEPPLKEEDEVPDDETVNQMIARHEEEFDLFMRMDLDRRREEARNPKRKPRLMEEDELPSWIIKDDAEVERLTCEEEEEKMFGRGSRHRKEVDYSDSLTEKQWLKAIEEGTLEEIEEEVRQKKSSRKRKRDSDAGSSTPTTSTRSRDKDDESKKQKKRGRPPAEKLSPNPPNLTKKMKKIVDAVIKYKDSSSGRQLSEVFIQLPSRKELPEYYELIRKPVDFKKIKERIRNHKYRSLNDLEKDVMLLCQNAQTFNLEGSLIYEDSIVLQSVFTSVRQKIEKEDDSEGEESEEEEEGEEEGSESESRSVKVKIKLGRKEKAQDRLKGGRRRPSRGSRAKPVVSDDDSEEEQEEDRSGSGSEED
# UniProt P50749: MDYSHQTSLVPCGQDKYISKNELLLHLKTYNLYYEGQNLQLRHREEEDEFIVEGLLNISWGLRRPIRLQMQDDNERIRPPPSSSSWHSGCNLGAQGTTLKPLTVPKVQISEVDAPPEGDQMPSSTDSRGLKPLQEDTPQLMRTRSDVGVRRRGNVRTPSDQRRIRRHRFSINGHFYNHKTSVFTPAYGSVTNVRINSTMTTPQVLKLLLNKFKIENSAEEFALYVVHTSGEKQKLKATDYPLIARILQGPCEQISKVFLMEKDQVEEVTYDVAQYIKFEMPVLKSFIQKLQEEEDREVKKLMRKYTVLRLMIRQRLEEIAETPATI
# UniProt P51570: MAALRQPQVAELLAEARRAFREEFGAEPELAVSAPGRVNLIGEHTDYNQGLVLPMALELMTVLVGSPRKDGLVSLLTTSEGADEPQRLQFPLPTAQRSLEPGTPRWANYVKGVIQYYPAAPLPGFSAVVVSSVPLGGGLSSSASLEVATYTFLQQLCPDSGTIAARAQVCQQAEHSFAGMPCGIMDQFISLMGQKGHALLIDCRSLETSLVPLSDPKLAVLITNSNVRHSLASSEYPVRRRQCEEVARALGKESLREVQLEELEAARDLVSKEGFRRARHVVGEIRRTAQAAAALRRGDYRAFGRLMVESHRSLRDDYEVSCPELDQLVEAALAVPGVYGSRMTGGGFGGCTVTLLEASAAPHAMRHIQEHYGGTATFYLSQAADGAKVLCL
# UniProt P51571: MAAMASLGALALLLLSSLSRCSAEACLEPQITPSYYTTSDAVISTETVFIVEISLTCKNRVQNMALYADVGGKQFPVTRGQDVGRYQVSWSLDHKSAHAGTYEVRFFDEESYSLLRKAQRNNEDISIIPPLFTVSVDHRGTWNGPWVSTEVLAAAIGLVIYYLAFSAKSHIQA
# UniProt P49757: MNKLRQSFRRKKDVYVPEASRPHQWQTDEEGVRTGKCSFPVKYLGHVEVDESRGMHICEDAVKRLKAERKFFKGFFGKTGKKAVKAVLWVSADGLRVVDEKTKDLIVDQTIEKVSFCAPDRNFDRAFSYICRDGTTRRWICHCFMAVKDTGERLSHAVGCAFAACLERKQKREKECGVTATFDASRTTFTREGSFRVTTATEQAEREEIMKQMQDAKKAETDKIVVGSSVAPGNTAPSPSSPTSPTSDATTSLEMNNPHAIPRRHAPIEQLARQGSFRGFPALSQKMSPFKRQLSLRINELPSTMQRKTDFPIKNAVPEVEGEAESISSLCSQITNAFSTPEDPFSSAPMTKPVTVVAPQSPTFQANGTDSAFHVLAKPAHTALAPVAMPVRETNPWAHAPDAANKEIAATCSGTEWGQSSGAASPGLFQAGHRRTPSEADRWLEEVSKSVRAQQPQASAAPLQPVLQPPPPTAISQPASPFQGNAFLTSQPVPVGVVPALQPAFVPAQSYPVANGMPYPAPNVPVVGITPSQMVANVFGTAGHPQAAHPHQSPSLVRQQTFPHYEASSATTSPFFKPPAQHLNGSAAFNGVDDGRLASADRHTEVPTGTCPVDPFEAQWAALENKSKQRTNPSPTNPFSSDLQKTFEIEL
# UniProt P40926: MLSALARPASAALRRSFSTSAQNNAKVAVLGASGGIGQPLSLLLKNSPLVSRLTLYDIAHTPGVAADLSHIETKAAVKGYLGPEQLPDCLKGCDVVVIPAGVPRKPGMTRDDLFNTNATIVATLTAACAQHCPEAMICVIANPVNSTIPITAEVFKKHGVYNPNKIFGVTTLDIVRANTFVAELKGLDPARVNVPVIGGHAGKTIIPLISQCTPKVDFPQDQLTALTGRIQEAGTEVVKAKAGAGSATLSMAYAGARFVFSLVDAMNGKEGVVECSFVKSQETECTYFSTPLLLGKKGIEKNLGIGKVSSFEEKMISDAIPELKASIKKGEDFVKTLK
# UniProt P52597: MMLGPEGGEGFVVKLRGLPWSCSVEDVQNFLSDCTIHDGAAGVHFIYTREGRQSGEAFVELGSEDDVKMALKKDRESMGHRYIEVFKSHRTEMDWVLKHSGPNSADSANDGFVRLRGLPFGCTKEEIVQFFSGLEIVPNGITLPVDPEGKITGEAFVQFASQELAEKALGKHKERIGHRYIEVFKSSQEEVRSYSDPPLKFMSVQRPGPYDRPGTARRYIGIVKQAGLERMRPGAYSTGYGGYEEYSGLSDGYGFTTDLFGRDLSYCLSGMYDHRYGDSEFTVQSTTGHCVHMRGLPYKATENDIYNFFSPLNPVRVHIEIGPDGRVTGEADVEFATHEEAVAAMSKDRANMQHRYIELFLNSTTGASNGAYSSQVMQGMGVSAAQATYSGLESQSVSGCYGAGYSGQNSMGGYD
# UniProt P38398, whole entry, looked up: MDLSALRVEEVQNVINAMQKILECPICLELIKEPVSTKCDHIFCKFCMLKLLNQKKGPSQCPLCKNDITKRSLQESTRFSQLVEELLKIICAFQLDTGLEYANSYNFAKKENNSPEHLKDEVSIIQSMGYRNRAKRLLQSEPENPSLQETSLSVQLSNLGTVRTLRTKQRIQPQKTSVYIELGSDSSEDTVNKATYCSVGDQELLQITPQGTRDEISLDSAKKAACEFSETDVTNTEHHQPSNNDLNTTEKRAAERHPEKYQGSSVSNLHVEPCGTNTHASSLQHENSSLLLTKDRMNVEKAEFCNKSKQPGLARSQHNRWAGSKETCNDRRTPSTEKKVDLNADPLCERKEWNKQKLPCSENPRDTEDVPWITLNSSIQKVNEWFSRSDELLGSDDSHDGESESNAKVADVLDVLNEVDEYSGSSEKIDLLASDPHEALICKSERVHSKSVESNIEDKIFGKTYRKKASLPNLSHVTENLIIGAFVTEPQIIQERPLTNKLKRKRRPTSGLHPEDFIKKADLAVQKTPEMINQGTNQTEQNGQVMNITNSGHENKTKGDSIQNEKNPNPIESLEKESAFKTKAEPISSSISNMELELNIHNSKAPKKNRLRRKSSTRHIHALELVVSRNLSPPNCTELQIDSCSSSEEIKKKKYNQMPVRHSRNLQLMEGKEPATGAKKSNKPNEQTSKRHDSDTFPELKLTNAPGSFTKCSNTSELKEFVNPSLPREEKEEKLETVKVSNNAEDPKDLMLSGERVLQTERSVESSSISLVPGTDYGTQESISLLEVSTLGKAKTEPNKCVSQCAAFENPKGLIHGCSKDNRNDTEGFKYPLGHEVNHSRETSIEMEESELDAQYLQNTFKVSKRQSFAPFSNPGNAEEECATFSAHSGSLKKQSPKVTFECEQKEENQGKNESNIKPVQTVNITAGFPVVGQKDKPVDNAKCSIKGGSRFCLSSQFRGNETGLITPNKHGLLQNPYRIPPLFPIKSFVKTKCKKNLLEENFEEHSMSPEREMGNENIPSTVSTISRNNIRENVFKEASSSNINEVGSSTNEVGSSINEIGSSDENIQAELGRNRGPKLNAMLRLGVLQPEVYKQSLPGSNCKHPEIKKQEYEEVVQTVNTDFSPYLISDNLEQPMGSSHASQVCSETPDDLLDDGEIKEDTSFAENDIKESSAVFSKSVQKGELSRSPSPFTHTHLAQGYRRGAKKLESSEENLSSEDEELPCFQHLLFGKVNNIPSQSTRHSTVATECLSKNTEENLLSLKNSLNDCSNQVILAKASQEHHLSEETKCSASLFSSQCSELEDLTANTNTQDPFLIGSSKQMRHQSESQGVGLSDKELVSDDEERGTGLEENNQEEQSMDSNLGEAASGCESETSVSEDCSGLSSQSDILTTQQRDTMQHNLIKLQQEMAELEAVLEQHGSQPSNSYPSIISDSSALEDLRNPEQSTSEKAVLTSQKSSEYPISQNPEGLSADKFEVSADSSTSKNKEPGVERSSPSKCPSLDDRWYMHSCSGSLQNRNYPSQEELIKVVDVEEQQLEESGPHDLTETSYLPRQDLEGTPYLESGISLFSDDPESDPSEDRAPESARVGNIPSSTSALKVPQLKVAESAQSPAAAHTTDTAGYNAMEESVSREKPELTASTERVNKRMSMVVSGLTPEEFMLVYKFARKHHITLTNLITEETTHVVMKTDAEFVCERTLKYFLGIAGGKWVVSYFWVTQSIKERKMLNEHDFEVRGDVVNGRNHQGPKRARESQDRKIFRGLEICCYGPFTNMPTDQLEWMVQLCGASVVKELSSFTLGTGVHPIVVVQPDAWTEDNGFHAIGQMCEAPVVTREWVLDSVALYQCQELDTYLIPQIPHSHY
# ± gives the standard deviation of the averaged measurements. The entries are a selection whose mix differs from that of the whole data set. Small differences around the control level are noise.
# Compound: Nc1ncnc2c1ncn2[C@@H]1O[C@H](COP(=O)(O)OP(=O)(O)OP(=O)(O)O)[C@@H](O)[C@H]1O [adenosine triphosphate]
# Test: NP40-soluble protein abundance relative to vehicle (solubility fold change) (ratio); higher = more soluble protein in presence of ATP
# Summary of the method: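 Data come from three independent experiments in which Dounce-homogenised Jurkat crude lysate was treated at eight concentrations from 0.1 to 10 mM. Treatment ran 10 min at room temperature and then 3 min at 37 °C, after which 0.8% NP40 and benzonase were added for 60 min at 4 °C before ultracentrifugation. The supernatant underwent TMT labelling and LC-MS/MS, and vsn-normalised intensities were expressed as fold change against the detergent-processed vehicle in each replicate.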
target,measurement,setting,value
DLST (UniProt P36957),NP40-soluble protein abundance,concentration: 0.1mM,0.994 ± 0.11
same,NP40-soluble protein abundance,concentration: 0.5mM,1.04 ± 0.18
FDFT1 (UniProt P37268),NP40-soluble protein abundance,concentration: 0.1mM,1.03 ± 0.061
same,NP40-soluble protein abundance,concentration: 0.5mM,1.01 ± 0.051
MRPL19 (UniProt P49406),NP40-soluble protein abundance,concentration: 0.1mM,0.974 ± 0.065
same,NP40-soluble protein abundance,concentration: 0.5mM,0.999 ± 0.059
GNPDA1 (UniProt P46926),NP40-soluble protein abundance,concentration: 0.1mM,0.997 ± 0.12
same,NP40-soluble protein abundance,concentration: 0.5mM,0.9947 ± 0.0089
P42166 and related entries (UniProt H0YJH7+P42167+P42166),NP40-soluble protein abundance,concentration: 0.1mM,1.01 ± 0.031
same,NP40-soluble protein abundance,concentration: 0.5mM,1.08 ± 0.038
UniProt P51532-2|P51532-3|P51532-4|P51532-5|Q9HBD4 and related entries,NP40-soluble protein abundance,concentration: 0.1mM,0.99 ± 0.058
same,NP40-soluble protein abundance,concentration: 0.5mM,1.06 ± 0.086
GTF2A1 (UniProt P52655),NP40-soluble protein abundance,concentration: 0.1mM,0.989 ± 0.14
same,NP40-soluble protein abundance,concentration: 0.5mM,0.908 ± 0.15
CCT5 (UniProt P48643),NP40-soluble protein abundance,concentration: 0.1mM,1 ± 0.03
same,NP40-soluble protein abundance,concentration: 0.5mM,1.02 ± 0.065
RASSF2 (UniProt P50749),NP40-soluble protein abundance,concentration: 0.1mM,1.03 ± 0.037
same,NP40-soluble protein abundance,concentration: 0.5mM,1.03 ± 0.025
TRAPPC10 (UniProt P48553),NP40-soluble protein abundance,concentration: 0.1mM,1.09 ± 0.064
same,NP40-soluble protein abundance,concentration: 0.5mM,0.969 ± 0.031
UniProt P48047,NP40-soluble protein abundance,concentration: 0.1mM,0.899 ± 0.12
same,NP40-soluble protein abundance,concentration: 0.5mM,0.848 ± 0.14
GALK1 (UniProt P51570),NP40-soluble protein abundance,concentration: 0.1mM,0.986 ± 0.026
same,NP40-soluble protein abundance,concentration: 0.5mM,0.994 ± 0.014
NCBP2 (UniProt P52298),NP40-soluble protein abundance,concentration: 0.1mM,0.984 ± 0.037
same,NP40-soluble protein abundance,concentration: 0.5mM,1 ± 0.017
SSR4 (UniProt P51571),NP40-soluble protein abundance,concentration: 0.1mM,1.06 ± 0.065
same,NP40-soluble protein abundance,concentration: 0.5mM,1.04 ± 0.06
RPL3 (UniProt P39023),NP40-soluble protein abundance,concentration: 0.1mM,0.979 ± 0.041
same,NP40-soluble protein abundance,concentration: 0.5mM,0.995 ± 0.085
UniProt P49757 and related entries,NP40-soluble protein abundance,concentration: 0.1mM,1.028 ± 0.0086
same,NP40-soluble protein abundance,concentration: 0.5mM,1.17 ± 0.047
UniProt P52209 and related entries,NP40-soluble protein abundance,concentration: 0.1mM,0.993 ± 0.054
same,NP40-soluble protein abundance,concentration: 0.5mM,1.02 ± 0.024
UniProt P49796 and related entries,NP40-soluble protein abundance,concentration: 0.1mM,0.978 ± 0.035
same,NP40-soluble protein abundance,concentration: 0.5mM,0.931 ± 0.054
MDH2 (UniProt P40926),NP40-soluble protein abundance,concentration: 0.1mM,0.996 ± 0.046
same,NP40-soluble protein abundance,concentration: 0.5mM,1.01 ± 0.055
HNRNPF (UniProt P52597),NP40-soluble protein abundance,concentration: 0.1mM,1.04 ± 0.043
same,NP40-soluble protein abundance,concentration: 0.5mM,1.05 ± 0.07
UniProt P51991 and related entries,NP40-soluble protein abundance,concentration: 0.1mM,1.01 ± 0.094
same,NP40-soluble protein abundance,concentration: 0.5mM,1.1 ± 0.1
UniProt P50750-2|P50750,NP40-soluble protein abundance,concentration: 0.1mM,1.05 ± 0.053
same,NP40-soluble protein abundance,concentration: 0.5mM,1.14 ± 0.06
same,NP40-soluble protein abundance,concentration: 1mM,1.18 ± 0.047
same,NP40-soluble protein abundance,concentration: 2mM,1.26 ± 0.047
same,NP40-soluble protein abundance,concentration: 4mM,1.38 ± 0.018
same,NP40-soluble protein abundance,concentration: 6mM,1.47 ± 0.13
same,NP40-soluble protein abundance,concentration: 8mM,1.64 ± 0.058
same,NP40-soluble protein abundance,concentration: 10mM,1.7 ± 0.1
CCT4 (UniProt P50991),NP40-soluble protein abundance,concentration: 0.1mM,0.891 ± 0.087
same,NP40-soluble protein abundance,concentration: 0.5mM,0.92 ± 0.1
PPT1 (UniProt P50897),NP40-soluble protein abundance,concentration: 0.1mM,0.918 ± 0.033
same,NP40-soluble protein abundance,concentration: 0.5mM,0.938 ± 0.03
same,NP40-soluble protein abundance,concentration: 1mM,0.942 ± 0.054
same,NP40-soluble protein abundance,concentration: 2mM,0.92 ± 0.019
same,NP40-soluble protein abundance,concentration: 4mM,0.877 ± 0.034
same,NP40-soluble protein abundance,concentration: 6mM,0.957 ± 0.035
same,NP40-soluble protein abundance,concentration: 8mM,0.903 ± 0.016
same,NP40-soluble protein abundance,concentration: 10mM,0.86 ± 0.039
RBM34 (UniProt P42696),NP40-soluble protein abundance,concentration: 0.1mM,1.08 ± 0.04
same,NP40-soluble protein abundance,concentration: 0.5mM,1.13 ± 0.074
same,NP40-soluble protein abundance,concentration: 1mM,1.16 ± 0.026
same,NP40-soluble protein abundance,concentration: 2mM,1.21 ± 0.059
same,NP40-soluble protein abundance,concentration: 4mM,1.4 ± 0.097
same,NP40-soluble protein abundance,concentration: 6mM,1.57 ± 0.1
same,NP40-soluble protein abundance,concentration: 8mM,1.7 ± 0.18
same,NP40-soluble protein abundance,concentration: 10mM,1.85 ± 0.21
UniProt P52757 and related entries,NP40-soluble protein abundance,concentration: 0.1mM,0.89 ± 0.12
same,NP40-soluble protein abundance,concentration: 0.5mM,0.932 ± 0.095
same,NP40-soluble protein abundance,concentration: 1mM,0.952 ± 0.13
same,NP40-soluble protein abundance,concentration: 2mM,0.971 ± 0.14
same,NP40-soluble protein abundance,concentration: 4mM,1 ± 0.23
same,NP40-soluble protein abundance,concentration: 6mM,0.948 ± 0.094
same,NP40-soluble protein abundance,concentration: 8mM,0.989 ± 0.091
same,NP40-soluble protein abundance,concentration: 10mM,0.983 ± 0.12
UniProt P38398 and related entries,NP40-soluble protein abundance,concentration: 0.1mM,1.02 ± 0.02
same,NP40-soluble protein abundance,concentration: 0.5mM,1.02 ± 0.035
same,NP40-soluble protein abundance,concentration: 1mM,1.02 ± 0.011
same,NP40-soluble protein abundance,concentration: 2mM,1.05 ± 0.071
same,NP40-soluble protein abundance,concentration: 4mM,1.03 ± 0.035
same,NP40-soluble protein abundance,concentration: 6mM,1.03 ± 0.086
same,NP40-soluble protein abundance,concentration: 8mM,1.02 ± 0.081
same,NP40-soluble protein abundance,concentration: 10mM,1.06 ± 0.03
PHKA2 (UniProt P46019),NP40-soluble protein abundance,concentration: 0.1mM,1.02 ± 0.058
same,NP40-soluble protein abundance,concentration: 0.5mM,1.02 ± 0.066
same,NP40-soluble protein abundance,concentration: 1mM,0.975 ± 0.071
same,NP40-soluble protein abundance,concentration: 2mM,0.9386 ± 0.0054
same,NP40-soluble protein abundance,concentration: 4mM,0.92 ± 0.033
same,NP40-soluble protein abundance,concentration: 6mM,0.932 ± 0.087
same,NP40-soluble protein abundance,concentration: 8mM,0.95 ± 0.028
same,NP40-soluble protein abundance,concentration: 10mM,0.919 ± 0.029

# Reprinted at random: 4 entries already listed, in no set order.
target,measurement,setting,value
UniProt P49757 and related entries,NP40-soluble protein abundance,concentration: 0.1mM,1.028 ± 0.0086
UniProt P38398 and related entries,NP40-soluble protein abundance,concentration: 0.1mM,1.02 ± 0.02
PHKA2 (UniProt P46019),NP40-soluble protein abundance,concentration: 8mM,0.95 ± 0.028
UniProt P38398 and related entries,NP40-soluble protein abundance,concentration: 2mM,1.05 ± 0.071
